{
  "source": "patent US4643988A",
  "about": "“Amphipathic peptides” (Research Corporation, priority 1984, dated 1987)",
  "assay": "Lipid association: complex formation of peptides with phospholipid vesicles (negative stain electron microscopy)",
  "type": "physicochemical",
  "note": "Part of at least one peptide drawing is inferred or uncertain, most often the ends. Where a SMILES comes first, the peptide text is derived from it. [ ]: non-standard residue; d: D form. 1Nal = N[C@@H](Cc1cccc2ccccc12)C(=O)O",
  "data": [
    {"smiles": "C[C@H](NC(=O)[C@H](CCC(=O)O)NC(=O)[C@H](CCCCN)NC(=O)[C@H](Cc1cccc2ccccc12)NC(=O)[C@H](CCCCN)NC(=O)[C@H](CCC(=O)O)NC(=O)[C@H](C)NC(=O)[C@H](Cc1cccc2ccccc12)NC(=O)[C@H](CCCCN)NC(=O)[C@H](CC(=O)O)NC(=O)[C@H](Cc1cccc2ccccc12)NC(=O)[C@H](Cc1ccccc1)NC(=O)[C@H](C)NC(=O)[C@H](CCCCN)NC(=O)[C@H](Cc1cccc2ccccc12)NC(=O)[C@H](Cc1c[nH]c2ccccc12)NC(=O)[C@@H](N)CC(=O)O)C(=O)N[C@@H](Cc1ccccc1)C(=O)O", "note": "[18naA, Asp-Trp-αNal-Lys-Ala-Phe-αNal-Asp-Lys-αNal-Ala-Glu-Lys-αNal-Lys-Glu-Ala-Phe] (H-DW[1Nal]KAF[1Nal]DK[1Nal]AEK[1Nal]KEAF-OH)", "values": [
      {"measurement": "Shape of peptide/phospholipid complexes", "setting": "negative stain electron microscopy", "value": "discoidal in shape"},
      {"measurement": "Formation of complexes with phospholipid vesicles", "setting": "room temperature", "value": "form small soluble complexes"}
    ]}
  ]
}
